Measurements: patent US20070077215A1, “Administration of phenylfurymethylthiazolidine-2,4-dione or phenylthienymethylthiazolidine-2,4-dione compounds for promoting and/or inducing and/or stimulating the pigmentation of keratinous substances and/or limiting their depigmentation and/or their whitening” (L'OREAL, priority 2005, published 2007)

Assay: Comparative test of coloring of bleached locks of hair
Conditions: 100 mg product in water/ethanol/aqueous ammonia (salt form), lock impregnated, 40° C. for 1 hour

SMILES	coloring of locks of hair by the product
O=C1N=C(O)/C(=C/c2ccc(-c3ccc(C(=O)O)cc3)o2)S1 [compound according to the prior art, Ionic compound derived from 4-{5-[(2,4-disulfo-1,3-thiazolidin-5-ylidene)methyl]-2-furyl}benzoic acid (Z isomer), reference compound]	colors the locks of hair
O=C1N=C(O)C(Cc2ccc(-c3ccc(C(=O)O)cc3)o2)S1 (centres unmarked) [compound according to the invention]	in contrast
